Measurements reported in PubChem BioAssay AID504808 (Drosophila RNAi Screening Center, 2011).
Assay: 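Fly genes required to hold E2F transcription in check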 (primary screen). Cell system: Drosophila S2 cells. Knock-down reagent: long dsRNA against Drosophila genes. Read-out: 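Firefly luciferase driven by E2F sites, normalised to Renilla luciferase on the same minimal promoter, measured by plate reader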. Reading the numbers: E2F firefly: higher = more E2F reporter activity; Renilla normaliser: higher = more normaliser reporter signal. Hit rule: 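a knock-down counted as active when the firefly/Renilla E2F signal rose above 50%, a threshold chosen arbitrarily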.
The screen tested about 21,000 reagents; below is an unselected part of those with a known target gene and a result. In the full data, 18 (0.084%) are marked active. 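Raw counts without plate normalisation, one of two replicates; the ratio scores behind the calls were not deposited.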 Unmarked entries are inactive. Names joined by + are all predicted targets of the reagent. Not stated in the record: the amount of reagent, the time to read-out.

Gene	DRSC id	E2F firefly, rep 1	Renilla normaliser, rep 1
CG14383	DRSC14841	1.09e5	5365
Rab35	DRSC20691	1.52e5	5016
CG32069 + Blos2	DRSC10621	68821	3480
gish (gilgamesh)	DRSC16154	70752	3518
Prosbeta3 (Proteasome beta3 subunit)	DRSC16801	46163	3368
Arl6IP1 (ADP-ribosylation factor-like 6 interacting protein 1)	DRSC14231	1.11e5	5799
da	DRSC03517	1.56e5	4337
Jwa	DRSC02048	86806	3435
CG10029	DRSC12498	1.21e5	6083
Pdfr (Pigment-dispersing factor receptor)	DRSC18614	1.06e5	6162
IM33 (Immune induced molecule 33)	DRSC00476	1.30e5	4945
CG34305	DRSC11995	81000	3765
CG3328	DRSC04357	75490	3704
Lis-1 (Lissencephaly-1)	DRSC07459	1.58e5	5887
CheA86a (Chemosensory protein A 86a)	DRSC12839	84022	2370
CG31223	DRSC15115	64962	3854
CG30414	DRSC04372	1.05e5	4201
RpL26 (Ribosomal protein L26)	DRSC10726	62429	11589
CG4884	DRSC15671	1.11e5	6104
CG15676	DRSC04267	1.09e5	4262
CG7255	DRSC10790	72590	2946
Mlc-c (Myosin light chain cytoplasmic)	DRSC18683	8670	828
CG16779	DRSC15153	1.43e5	5244
IntS11 (Integrator 11)	DRSC15407	1696	952
S-Lap7 (Sperm-Leucylaminopeptidase 7)	DRSC06374	93830	4400
CG16837	DRSC04283	1.11e5	4361
Tango2 (Transport and Golgi organization 2)	DRSC19394	8011	780
TwdlU (TweedleU)	DRSC12224	1.23e5	5226
moi + Tgs1	DRSC16371	1.52e5	7150
Brr2 (Brr2 U5 snRNP complex subunit)	DRSC10559	55259	3531
NimB1 (Nimrod B1)	DRSC01880	1.01e5	3612
SpdS (Spermidine Synthase)	DRSC16408	1.42e5	6123
RhoGAP15B (Rho GTPase activating protein at 15B)	DRSC19924	1.54e5	5305
RhoGAP15B (Rho GTPase activating protein at 15B)	DRSC19925	2.55e5	8463
CG15888	DRSC15125	1.03e5	6782
CG12499	DRSC14521	79897	4985
Acp29AB (Accessory gland protein 29AB)	DRSC01857	1.31e5	5562
Gr43a (Gustatory receptor 43a)	DRSC06658	1.35e5	4726
CG15390	DRSC00404	1.53e5	5504
CG10919	DRSC14283	1.38e5	6641
CG3857	DRSC18542	1622	888
Cc2d2a (Coiled-coil and C2 domain containing 2A)	DRSC06750	1.40e5	5685
Cc2d2a (Coiled-coil and C2 domain containing 2A)	DRSC06779	1.51e5	5511
Dhpr (Dihydropteridine reductase)	DRSC11135	89528	3923
CG8414	DRSC07168	1.47e5	5284
ZnT86D (Zinc transporter 86D)	DRSC16091	1.63e5	7276
Cyp6a16Psi (retired record)	DRSC03307	1.51e5	5205
Claspin	DRSC08308	54803	3671
CCDC53 (Coiled-coil domain containing 53)	DRSC03056	1.51e5	5644
CG12448	DRSC01967	98055	4574
frtz (fritz)	DRSC00512	1.75e5	5455
Ppa (Partner of paired)	DRSC04598	99260	4106
CG14478	DRSC06450	1.28e5	4927
betaTub60D (beta-Tubulin at 60D)	DRSC04673	1.12e5	4062
CG1773	DRSC06688	2709	224
eg (eagle)	DRSC11885	1.35e5	6385
EMC1 (ER membrane protein complex subunit 1)	DRSC15455	75928	3119
pix (pixie)	DRSC10533	81596	4405
ndl (nudel)	DRSC11374	88180	3614
PXo (P[[i]]-sensitive XPR1 orthologue)	DRSC09734	81714	3462
viaf (viral IAP-associated factor)	DRSC10326	74910	3477
Tdc2 (Tyrosine decarboxylase 2)	DRSC04999	1.01e5	3572
CG15394	DRSC00408	1.64e5	5684
CG1688	DRSC05934	2771	174
CG13127	DRSC02223	1.57e5	5287
Der-1 (Derlin-1)	DRSC00301	88648	3667
sloth2 + sloth1	DRSC17922	1.20e5	6691
sloth2 + sloth1	DRSC17923	1.14e5	6123
Ndg (Nidogen)	DRSC06223	3190	284
Fur1 (Furin 1)	DRSC13707	88896	2465
Fur1 (Furin 1)	DRSC16676	1855	888
sprt (sprite)	DRSC07323	2912	202
CG9427	DRSC16490	70757	3139
CG13461	DRSC10008	1.40e5	7689
glob2 (globin 2)	DRSC12560	1.30e5	5962
Cip4 (Cdc42-interacting protein 4)	DRSC08091	1.35e5	4384
Cip4 (Cdc42-interacting protein 4)	DRSC08469	67303	3607
SmE (Small ribonucleoprotein particle protein SmE)	DRSC02680	93773	4661
fs(2)ltoPP43 (female sterile (2) ltoPP43)	DRSC02067	89294	3921
stw (straw)	DRSC04842	1.16e5	5703
stw (straw)	DRSC04843	1.14e5	4199
CG5254	DRSC18611	1.31e5	5242
CG14306 (retired record)	DRSC14785	1.31e5	6347
CG16813	DRSC02520	1.03e5	4216
CG30413	DRSC04001	1.23e5	4960
x16 (x16 splicing factor)	DRSC00960	1.33e5	4886
x16 (x16 splicing factor)	DRSC03638	79741	3876
CG13084	DRSC02188	1.07e5	4123
Pmm2 (Phosphomannomutase type 2)	DRSC09780	1.38e5	7587
CG13613	DRSC14616	1.01e5	5906
nAChRalpha1 (nicotinic Acetylcholine Receptor alpha1)	DRSC13664	74631	2327
nAChRalpha1 (nicotinic Acetylcholine Receptor alpha1)	DRSC13670	76033	2601
nAChRalpha1 (nicotinic Acetylcholine Receptor alpha1)	DRSC13672	85905	2229
nAChRalpha1 (nicotinic Acetylcholine Receptor alpha1)	DRSC17008	1.08e5	5425
CG11537	DRSC08200	80978	3152
CG32243	DRSC08105	1.43e5	4535
Cog3 (Component of oligomeric golgi complex 3)	DRSC00585	76307	3640
EndoU (Endoribonuclease U-specific)	DRSC15472	85591	3911
Mitofilin	DRSC16742	70934	3080
CG13133	DRSC02230	1.55e5	5094
CG31115	DRSC13692	84262	2935
CG11882	DRSC14425	1.34e5	6809
EMC10 (ER membrane protein complex subunit 10)	DRSC11850	1.34e5	7048
CG18302	DRSC02663	1.48e5	4883
mib2 (mind bomb 2)	DRSC02623	74035	3663
CheA75a (Chemosensory protein A 75a)	DRSC10807	63446	3086
mor (moira)	DRSC15378	1.18e5	7891
